The target in assay [1] is T1, bovine ARβ3 receptor (Bos taurus, UniProt P46626).
T1 construct: to liberate the 1598-base pair fragment containing the coding region of the bovine β3 gene; expressed in transfected cells
T1 sequence (P46626 1-405): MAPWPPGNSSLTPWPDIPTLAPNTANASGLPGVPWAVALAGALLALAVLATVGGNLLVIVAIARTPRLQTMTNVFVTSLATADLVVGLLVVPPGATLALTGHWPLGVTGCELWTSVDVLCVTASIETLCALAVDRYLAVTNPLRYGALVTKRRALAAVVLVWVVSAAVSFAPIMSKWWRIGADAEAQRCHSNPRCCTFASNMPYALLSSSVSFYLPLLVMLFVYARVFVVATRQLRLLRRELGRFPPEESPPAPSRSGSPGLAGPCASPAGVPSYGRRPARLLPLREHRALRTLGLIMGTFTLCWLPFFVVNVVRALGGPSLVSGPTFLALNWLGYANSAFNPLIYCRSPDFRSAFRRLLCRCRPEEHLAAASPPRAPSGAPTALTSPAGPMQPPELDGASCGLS
As to the kind of experiment: competitive binding of ligands against [^125 I]cyanopindolol on intact CHO cells, bovine receptor (clone 62-26). The procedure:
Reaction is stopped by dilution with ice-cold PBS, the cells are filtered off and the radioactivity is measured in a gamma counter. The results were analysed using Graph-Pad.COPYRGT. software.

The target in assay [2] is human ARβ3 receptor. Particulars: Human RAβ3-CHO; read-out: Binding Ki; cited from earlier work.
Assay [3] concerns the target human ARβ3 receptor. The note with it: Human RAβ3-CHO; read-out: Accumul. cAMP Kact (adenylate cyclase activation constant); cited from earlier work.
Assay [4] concerns the target T1, bovine ARβ3 receptor. Kind of assay: adenylate cyclase activation (cAMP accumulation) in CHO cells, bovine receptor (clone 62-26). It is filed as cell-based. The procedure: Briefly, preconfluent cells in six-well plates (0.6×10^6 cells/well) are placed in contact or otherwise with increasing doses of ligands for 30 minutes at 37° C. Reaction is stopped by washing in PBS at 4° C. and adding 500 μl of 1N NaOH. After centrifugation and neutralization with 1N acetic acid, the cell lysates are recovered and the total amount of cAMP accumulated is determined using a commercial assay kit.

Another assay addresses mouse ARβ3 receptor. The note with it: Mouse RAβ3-CHO; read-out: Binding Ki; cited from earlier work.

Consider one compound from patent US5656440A, “Nucleotide sequences coding for the bovine β3 -adrenergic receptor (ARβ3) and their applications” (Virbac, priority 1993, dated 1997).

SMILES strings stand for the structures.

Turning to `CC(C)NC[C@H](O)COc1cccc2ccccc12` [(- ) propranolol, (-)-propranolol], the results for the Ki on bovine ARβ3 receptor [1], at human ARβ3 receptor [2] and on mouse ARβ3 receptor were 0.589 ± 0.074 µM, 0.145 ± 0.008 µM and 0.15 ± 0.022 µM, respectively. Besides, the EC50 is 1.49 µM on human ARβ3 receptor [3] and 0.661 µM at bovine ARβ3 receptor [4].
